Common to all, as to experiment: flow cytometry on cells; genome-scale CRISPR knockout library of Cas9-expressing cells (HEK293; NCI-SNU-1 for TNFRSF9) stained with oligomeric recombinant probe; cells that had lost binding sorted, gRNA enrichment by sequencing (MAGeCK)
The target in assay [1] is TNFSF9 (human (endogenous in NCI-SNU-1)) (UniProt P41273).
The target of assay [2] is T1, CADM1 (human (endogenous in HEK293)) (UniProt Q9BY67).
T1 sequence: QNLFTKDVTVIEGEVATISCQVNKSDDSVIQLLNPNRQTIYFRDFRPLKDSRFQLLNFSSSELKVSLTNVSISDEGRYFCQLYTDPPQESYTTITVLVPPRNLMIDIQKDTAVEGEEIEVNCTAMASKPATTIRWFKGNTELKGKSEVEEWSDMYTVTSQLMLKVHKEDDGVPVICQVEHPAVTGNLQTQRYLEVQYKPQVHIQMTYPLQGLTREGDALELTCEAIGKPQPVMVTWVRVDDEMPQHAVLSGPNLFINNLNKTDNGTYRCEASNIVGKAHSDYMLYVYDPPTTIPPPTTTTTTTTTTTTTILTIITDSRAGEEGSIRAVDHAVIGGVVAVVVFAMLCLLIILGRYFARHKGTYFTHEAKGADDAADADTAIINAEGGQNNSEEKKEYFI

Amino acid sequences for entries named in this document (tags omitted). Residues count along the entry.
UniProt P41273: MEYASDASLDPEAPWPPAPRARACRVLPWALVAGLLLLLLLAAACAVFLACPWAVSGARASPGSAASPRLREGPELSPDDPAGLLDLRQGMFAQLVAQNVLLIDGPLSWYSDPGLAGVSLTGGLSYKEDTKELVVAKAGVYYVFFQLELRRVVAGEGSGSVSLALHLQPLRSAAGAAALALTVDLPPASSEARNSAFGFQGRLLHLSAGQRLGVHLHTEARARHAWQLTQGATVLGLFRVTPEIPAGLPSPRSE
UniProt P52799, residues 28-333: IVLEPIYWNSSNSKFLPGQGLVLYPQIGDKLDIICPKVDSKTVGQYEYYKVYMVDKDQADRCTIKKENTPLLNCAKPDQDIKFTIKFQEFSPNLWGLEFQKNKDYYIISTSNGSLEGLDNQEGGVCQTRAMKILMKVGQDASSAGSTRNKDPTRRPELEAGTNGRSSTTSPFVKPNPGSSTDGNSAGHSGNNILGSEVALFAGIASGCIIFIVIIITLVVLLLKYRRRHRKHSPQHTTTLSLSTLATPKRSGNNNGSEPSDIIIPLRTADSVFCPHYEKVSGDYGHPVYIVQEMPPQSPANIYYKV
UniProt Q07011, residues 24-186: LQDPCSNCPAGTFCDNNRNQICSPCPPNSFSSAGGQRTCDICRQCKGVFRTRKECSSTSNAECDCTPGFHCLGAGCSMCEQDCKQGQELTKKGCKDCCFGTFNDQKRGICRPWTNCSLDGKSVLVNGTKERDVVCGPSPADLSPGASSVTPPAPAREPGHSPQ

For assay [3], the target named is EFNB2 (human (endogenous in HEK293)) (UniProt P52799).

No constants are given. Whether binding was seen depends on the method and setting. Some binding calls cover weakened binding; strength is not graded here.

As for “TNFRSF9 (from UniProt Q07011 24-186) (receptor)”, the binding result in assay [1] is recorded as “binds”.

B1: CRTAM (receptor, UniProt O95727 18-287)
chain: SLTNHTETITVEEGQTLTLKCVTSLRKNSSLQWLTPSGFTIFLNEYPALKNSKYQLLHHSANQLSITVPNVTLQDEGVYKCLHYSDSVSTKEVKVIVLATPFKPILEASVIRKQNGEEHVVLMCSTMRSKPPPQITWLLGNSMEVSGGTLHEFETDGKKCNTTSTLIIHTYGKNSTVDCIIRHRGLQGRKLVAPFRFEDLVTDEETASDALERNSLSSQDPQQPTSTVSVTEDSSTSEIDKEEKEQTTQDPDLTTEANPQYLGLARKKSG
As to B1, the binding entry in assay [2] is on record as “binds”.

B2: EPHB1 (receptor, UniProt P54762 18-540)
chain: MEETLMDTRTATAELGWTANPASGWEEVSGYDENLNTIRTYQVCNVFEPNQNNWLLTTFINRRGAHRIYTEMRFTVRDCSSLPNVPGSCKETFNLYYYETDSVIATKKSAFWSEAPYLKVDTIAADESFSQVDFGGRLMKVNTEVRSFGPLTRNGFYLAFQDYGACMSLLSVRVFFKKCPSIVQNFAVFPETMTGAESTSLVIARGTCIPNAEEVDVPIKLYCNGDGEWMVPIGRCTCKPGYEPENSVACKACPAGTFKASQEAEGCSHCPSNSRSPAEASPICTCRTGYYRADFDPPEVACTSVPSGPRNVISIVNETSIILEWHPPRETGGRDDVTYNIICKKCRADRRSCSRCDDNVEFVPRQLGLTECRVSISSLWAHTPYTFDIQAINGVSSKSPFPPQHVSVNITTNQAAPSTVPIMHQVSATMRSITLSWPQPEQPNGIILDYEIRYYEKEHNEFNSSMARSQTNTARIDGLRPGMVYVVQVRARTVAGYGKFSGKMCFQTLTDDDYKSELREQLP
Regarding B2, the binding entry in assay [3] was “binds”.

Source of the values: publication PMC6120632.
